The supplement of paper PMC10849652
This is one part of the list.

Chains of the proteins cited; added tags and fusions are not shown. Lines headed by an entry give the natural chain unless they say otherwise; changes in a name come on top.
UniProt Q9H936: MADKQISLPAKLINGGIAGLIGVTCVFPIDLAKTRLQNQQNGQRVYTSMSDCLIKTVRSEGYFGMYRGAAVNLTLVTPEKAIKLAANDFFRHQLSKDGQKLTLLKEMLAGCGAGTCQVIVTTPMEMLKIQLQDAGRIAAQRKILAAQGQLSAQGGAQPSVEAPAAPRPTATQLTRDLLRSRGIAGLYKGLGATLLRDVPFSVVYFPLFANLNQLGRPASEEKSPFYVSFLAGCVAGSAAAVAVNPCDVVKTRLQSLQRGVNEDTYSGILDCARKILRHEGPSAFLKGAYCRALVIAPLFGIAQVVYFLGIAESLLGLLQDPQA
UniProt Q6XR72: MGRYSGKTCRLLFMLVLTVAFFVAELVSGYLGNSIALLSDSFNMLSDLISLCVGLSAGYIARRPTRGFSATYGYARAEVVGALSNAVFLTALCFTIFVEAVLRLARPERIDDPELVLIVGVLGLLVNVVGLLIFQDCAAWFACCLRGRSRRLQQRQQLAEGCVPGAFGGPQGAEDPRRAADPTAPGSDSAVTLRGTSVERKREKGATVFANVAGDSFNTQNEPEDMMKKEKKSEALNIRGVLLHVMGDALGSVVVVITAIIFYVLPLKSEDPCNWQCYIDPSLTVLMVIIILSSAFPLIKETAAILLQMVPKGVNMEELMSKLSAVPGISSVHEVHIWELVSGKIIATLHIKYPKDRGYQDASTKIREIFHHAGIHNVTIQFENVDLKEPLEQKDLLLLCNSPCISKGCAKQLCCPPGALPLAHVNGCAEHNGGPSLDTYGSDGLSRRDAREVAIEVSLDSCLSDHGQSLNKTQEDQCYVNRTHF
UniProt Q9Y6M7: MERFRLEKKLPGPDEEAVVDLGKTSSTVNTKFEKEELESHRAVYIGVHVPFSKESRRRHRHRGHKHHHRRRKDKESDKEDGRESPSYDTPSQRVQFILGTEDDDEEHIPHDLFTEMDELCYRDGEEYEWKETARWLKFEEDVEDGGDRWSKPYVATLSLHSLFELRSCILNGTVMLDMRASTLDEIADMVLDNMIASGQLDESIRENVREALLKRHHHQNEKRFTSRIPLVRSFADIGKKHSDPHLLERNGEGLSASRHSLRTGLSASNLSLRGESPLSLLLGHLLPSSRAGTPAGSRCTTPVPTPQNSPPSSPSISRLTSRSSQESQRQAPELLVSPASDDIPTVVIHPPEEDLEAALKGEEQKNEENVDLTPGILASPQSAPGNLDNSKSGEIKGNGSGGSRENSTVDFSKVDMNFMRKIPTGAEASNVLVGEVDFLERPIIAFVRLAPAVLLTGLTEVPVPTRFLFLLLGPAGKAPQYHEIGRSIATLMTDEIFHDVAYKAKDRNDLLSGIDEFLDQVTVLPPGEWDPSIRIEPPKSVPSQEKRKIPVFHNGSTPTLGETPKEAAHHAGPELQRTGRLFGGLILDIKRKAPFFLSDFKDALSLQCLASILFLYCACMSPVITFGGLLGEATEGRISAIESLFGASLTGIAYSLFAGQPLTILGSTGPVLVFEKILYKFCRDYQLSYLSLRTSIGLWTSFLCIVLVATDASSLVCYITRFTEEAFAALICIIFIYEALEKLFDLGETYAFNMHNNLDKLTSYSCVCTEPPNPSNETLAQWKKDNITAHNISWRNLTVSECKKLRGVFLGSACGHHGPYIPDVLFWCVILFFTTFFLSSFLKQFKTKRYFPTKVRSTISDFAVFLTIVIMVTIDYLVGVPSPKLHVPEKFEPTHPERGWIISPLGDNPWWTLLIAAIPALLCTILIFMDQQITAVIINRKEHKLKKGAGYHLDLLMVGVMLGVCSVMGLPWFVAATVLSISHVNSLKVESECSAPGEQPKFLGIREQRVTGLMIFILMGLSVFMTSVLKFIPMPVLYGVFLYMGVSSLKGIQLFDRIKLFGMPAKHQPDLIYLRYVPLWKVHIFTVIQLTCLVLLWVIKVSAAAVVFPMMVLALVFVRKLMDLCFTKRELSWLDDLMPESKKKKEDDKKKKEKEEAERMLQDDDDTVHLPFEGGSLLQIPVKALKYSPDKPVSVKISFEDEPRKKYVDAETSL
UniProt Q9Y619: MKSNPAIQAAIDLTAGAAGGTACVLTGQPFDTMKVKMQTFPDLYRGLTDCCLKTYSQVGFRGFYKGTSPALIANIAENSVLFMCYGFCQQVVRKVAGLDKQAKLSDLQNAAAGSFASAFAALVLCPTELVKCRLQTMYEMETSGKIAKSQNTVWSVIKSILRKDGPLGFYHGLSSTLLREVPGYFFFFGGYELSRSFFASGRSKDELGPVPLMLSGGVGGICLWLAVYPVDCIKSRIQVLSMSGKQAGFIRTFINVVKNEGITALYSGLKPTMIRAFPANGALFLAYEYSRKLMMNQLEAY
UniProt Q9ULF5: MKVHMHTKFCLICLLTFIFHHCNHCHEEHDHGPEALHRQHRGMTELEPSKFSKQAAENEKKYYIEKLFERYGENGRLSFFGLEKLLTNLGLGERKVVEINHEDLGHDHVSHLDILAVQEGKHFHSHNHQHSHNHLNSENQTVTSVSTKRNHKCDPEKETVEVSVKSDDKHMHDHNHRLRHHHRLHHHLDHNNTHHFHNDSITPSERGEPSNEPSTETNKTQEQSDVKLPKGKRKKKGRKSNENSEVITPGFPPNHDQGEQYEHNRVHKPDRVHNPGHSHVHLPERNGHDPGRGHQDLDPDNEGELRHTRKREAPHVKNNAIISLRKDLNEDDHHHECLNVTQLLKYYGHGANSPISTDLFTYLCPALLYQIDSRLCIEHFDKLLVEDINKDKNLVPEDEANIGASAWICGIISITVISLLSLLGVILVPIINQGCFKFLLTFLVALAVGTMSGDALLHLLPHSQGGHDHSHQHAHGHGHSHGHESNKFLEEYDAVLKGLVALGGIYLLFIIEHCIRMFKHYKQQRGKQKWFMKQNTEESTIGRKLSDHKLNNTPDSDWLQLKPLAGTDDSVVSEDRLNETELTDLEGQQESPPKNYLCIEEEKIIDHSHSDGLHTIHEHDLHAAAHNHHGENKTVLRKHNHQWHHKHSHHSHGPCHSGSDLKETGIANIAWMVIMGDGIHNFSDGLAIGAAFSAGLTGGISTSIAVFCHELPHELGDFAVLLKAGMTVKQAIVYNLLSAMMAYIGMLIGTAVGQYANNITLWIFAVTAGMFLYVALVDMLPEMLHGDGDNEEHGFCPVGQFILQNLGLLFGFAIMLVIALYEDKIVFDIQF
UniProt O00193: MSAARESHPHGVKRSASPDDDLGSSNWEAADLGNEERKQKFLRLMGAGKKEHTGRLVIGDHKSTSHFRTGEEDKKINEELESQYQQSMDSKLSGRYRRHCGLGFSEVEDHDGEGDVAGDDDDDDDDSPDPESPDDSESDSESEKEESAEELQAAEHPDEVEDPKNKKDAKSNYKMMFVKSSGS
UniProt Q9BQT8: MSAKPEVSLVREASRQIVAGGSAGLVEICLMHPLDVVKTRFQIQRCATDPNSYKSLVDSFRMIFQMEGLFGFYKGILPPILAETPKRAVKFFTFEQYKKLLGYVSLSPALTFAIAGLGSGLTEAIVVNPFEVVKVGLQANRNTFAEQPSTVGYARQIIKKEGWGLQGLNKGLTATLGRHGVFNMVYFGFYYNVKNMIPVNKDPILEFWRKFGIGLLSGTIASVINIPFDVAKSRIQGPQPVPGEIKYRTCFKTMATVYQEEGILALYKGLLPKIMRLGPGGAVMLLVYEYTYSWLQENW
UniProt P31641: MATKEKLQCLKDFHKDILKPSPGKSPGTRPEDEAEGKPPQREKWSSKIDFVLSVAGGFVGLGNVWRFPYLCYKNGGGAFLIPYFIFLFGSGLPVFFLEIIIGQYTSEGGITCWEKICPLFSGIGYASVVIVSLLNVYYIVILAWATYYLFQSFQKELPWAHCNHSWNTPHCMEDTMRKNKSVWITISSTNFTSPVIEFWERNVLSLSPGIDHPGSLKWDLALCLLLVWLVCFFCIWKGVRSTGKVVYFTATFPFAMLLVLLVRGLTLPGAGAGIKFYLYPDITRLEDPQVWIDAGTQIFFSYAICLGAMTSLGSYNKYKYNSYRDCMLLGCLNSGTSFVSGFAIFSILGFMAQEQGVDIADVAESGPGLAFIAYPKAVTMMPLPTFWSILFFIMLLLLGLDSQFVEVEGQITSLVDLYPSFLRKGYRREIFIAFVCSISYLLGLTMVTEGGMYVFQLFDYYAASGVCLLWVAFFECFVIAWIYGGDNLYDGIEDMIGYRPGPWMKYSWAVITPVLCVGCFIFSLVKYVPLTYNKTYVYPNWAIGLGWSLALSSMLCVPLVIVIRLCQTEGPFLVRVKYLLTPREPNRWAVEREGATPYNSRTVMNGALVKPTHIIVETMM
UniProt P50443: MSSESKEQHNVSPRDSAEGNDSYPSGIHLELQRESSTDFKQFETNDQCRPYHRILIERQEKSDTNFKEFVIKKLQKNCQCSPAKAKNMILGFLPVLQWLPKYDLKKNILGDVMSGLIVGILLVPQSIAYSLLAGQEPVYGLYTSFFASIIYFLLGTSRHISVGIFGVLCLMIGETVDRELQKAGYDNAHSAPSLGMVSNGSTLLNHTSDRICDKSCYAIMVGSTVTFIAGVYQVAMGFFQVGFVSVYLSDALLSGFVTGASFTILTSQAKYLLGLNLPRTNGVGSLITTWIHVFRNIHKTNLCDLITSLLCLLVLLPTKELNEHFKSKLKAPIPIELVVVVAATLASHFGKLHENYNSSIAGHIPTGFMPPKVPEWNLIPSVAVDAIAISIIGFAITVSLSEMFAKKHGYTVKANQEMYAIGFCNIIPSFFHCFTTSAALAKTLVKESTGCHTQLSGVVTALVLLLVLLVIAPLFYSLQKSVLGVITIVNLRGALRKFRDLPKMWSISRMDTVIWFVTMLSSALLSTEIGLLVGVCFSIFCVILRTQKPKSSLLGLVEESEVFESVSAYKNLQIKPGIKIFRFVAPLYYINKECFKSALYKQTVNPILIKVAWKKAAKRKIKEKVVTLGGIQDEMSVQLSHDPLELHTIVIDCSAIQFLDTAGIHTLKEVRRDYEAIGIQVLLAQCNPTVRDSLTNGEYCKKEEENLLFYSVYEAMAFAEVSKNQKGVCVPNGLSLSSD
UniProt O14975, whole entry, looked up: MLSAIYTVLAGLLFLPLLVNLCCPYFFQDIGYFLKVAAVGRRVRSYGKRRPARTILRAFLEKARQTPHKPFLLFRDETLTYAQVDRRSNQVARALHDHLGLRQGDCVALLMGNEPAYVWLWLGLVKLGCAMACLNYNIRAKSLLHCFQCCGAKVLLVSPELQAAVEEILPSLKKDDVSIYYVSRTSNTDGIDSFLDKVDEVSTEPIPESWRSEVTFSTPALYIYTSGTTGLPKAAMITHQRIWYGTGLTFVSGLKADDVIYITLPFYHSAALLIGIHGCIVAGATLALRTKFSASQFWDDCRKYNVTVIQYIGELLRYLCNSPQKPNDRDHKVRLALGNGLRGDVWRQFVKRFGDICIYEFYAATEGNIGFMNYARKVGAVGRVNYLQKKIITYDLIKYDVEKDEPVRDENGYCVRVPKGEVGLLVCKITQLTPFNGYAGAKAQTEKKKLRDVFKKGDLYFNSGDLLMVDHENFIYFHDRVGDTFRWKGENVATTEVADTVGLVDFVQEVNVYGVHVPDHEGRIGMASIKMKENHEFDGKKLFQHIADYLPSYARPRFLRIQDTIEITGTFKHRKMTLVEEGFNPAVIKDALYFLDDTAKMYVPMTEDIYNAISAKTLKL
UniProt P05141: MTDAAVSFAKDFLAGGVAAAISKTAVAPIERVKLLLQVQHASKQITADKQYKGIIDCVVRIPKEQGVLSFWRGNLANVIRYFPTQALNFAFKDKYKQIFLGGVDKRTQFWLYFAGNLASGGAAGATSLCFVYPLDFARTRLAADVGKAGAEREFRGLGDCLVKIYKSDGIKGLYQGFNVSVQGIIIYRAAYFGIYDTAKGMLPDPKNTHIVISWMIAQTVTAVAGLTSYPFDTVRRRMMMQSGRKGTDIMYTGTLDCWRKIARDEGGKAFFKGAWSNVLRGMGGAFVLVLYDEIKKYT
UniProt Q9H1U9: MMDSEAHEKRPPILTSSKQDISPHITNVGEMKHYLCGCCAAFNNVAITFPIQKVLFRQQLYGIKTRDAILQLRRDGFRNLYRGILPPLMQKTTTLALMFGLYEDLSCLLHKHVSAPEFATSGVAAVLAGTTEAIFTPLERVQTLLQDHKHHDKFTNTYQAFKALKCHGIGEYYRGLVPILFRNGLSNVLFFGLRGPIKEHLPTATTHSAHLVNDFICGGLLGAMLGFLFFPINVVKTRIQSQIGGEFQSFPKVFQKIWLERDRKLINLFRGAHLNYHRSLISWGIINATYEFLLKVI
UniProt O43808: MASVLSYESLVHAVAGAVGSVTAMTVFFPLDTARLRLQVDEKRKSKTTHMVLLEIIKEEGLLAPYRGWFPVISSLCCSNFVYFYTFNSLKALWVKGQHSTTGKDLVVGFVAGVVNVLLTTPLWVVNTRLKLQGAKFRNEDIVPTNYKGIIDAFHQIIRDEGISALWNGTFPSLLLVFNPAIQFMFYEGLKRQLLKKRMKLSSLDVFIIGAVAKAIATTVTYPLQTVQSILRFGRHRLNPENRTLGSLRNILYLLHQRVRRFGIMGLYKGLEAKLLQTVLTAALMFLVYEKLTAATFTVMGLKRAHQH

compound: c1cn2cc(-c3ccc4cn[nH]c4c3)nc(Nc3ccc(N4CCOCC4)cc3)c2n1 [entospletinib]; experiment: log2 fold change, soluble protein after heating vs DMSO (PISA); higher = thermal stabilisation; K562 lysate, 10 uM; active = over 0.2 and 3.5 SD of the protein, either way, in both replicates (recomputed)
Summary of the method: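 K562 pellets were dounce-homogenised in PBS pH 7.4 containing 1 mM MgCl2, and the crude extract, at 1 mg/mL protein, was exposed to 10 μM compound for 30 min. Aliquots were heated for 3 min across 48°C-58°C, pooled, brought to 0.5% NP-40 at 4°C and spun at 21,000xg for 90 min, with the supernatant taken as soluble protein. TMTpro 16plex LC-MS/MS with equalised channel sums quantified that protein. Values are log-two fold changes in thermal stability relative to solvent controls, taken from duplicates.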

log2 fold change, inactive:
SLC25A22 (UniProt Q9H936) 0.008
SLC25A10 isoform 2 (UniProt Q9UBX3) -0.023
SLC30A10 (UniProt Q6XR72) -0.053
SLC35A4 (UniProt L0R6Q1) -0.021
SLC27A4 (UniProt Q6P1M0) 0.07
SLC35A3 isoform 2 (UniProt Q9Y2D2) 0
SLC9A3R1 (UniProt O14745) 0.008
SLC4A7 isoform 7 (UniProt Q9Y6M7) -0.037
SLC7A11 (UniProt Q9UPY5) -0.048
SLC35B2 (UniProt Q8TB61) -0.026
SMAD4 (UniProt Q13485) -0.008
SLC43A3 isoform 2 (UniProt Q8NBI5) -0.006
SLC25A15 (UniProt Q9Y619) 0.009
SLC39A10 (UniProt Q9ULF5) -0.075
SMAP (UniProt O00193) 0.001
SLC35B1 isoform 2 (UniProt P78383) -0.219
SMAD5 (UniProt Q99717) -0.004
SLC35B4 (UniProt Q969S0) 0.033
SLC25A21 (UniProt Q9BQT8) 0.026
SMAP2 (UniProt Q8WU79) -0.028
SLC6A6 (UniProt P31641) 0.028
SLC25A32 (UniProt Q9H2D1) 0.033
SLC26A2 (UniProt P50443) 0.004
SLC2A3 (UniProt P11169) 0.006
SLC25A37 (UniProt Q9NYZ2) 0.019
SLC25A3 isoform 2 (UniProt Q00325) 0.016
SLC7A2 isoform 3 (UniProt P52569) 0.158
SLC25A12 (UniProt O75746) 0.01
SLC27A2 (UniProt O14975) -0.023
SLC9A6 isoform 2 (UniProt Q92581) -0.011
SLC39A3 (UniProt Q9BRY0) 0.065
SLC25A5 (UniProt P05141) 0.036
SLC38A2 (UniProt Q96QD8) 0.05
SLC35C1 (UniProt Q96A29) -0.063
SLC25A51 (UniProt Q9H1U9) 0.036
SLC25A17 (UniProt O43808) -0.027
SLC4A2 (UniProt P04920) 0.003
SLC7A5 (UniProt Q01650) 0.03

3 entries picked at random from the list so far:
log2 fold change, inactive:
SLC35A3 isoform 2 (UniProt Q9Y2D2) 0
SLC25A17 (UniProt O43808) -0.027
SLC35C1 (UniProt Q96A29) -0.063
